{"source": "PubChem BioAssay AID1347131", "about": "(National Center for Advancing Translational Sciences (NCATS), 2019)", "note": "About 2,000 (0.49%) of roughly 410,000 compounds were called active. The shares of active, inactive and inconclusive entries below differ from those in the screen. The call rests on the fitted dose curve; tested in HEK293 reporter line. Potencies of inconclusive entries are doubtful fits and often do not repeat. Potency means the concentration at half of the fitted maximal effect."}
{"assay": "qHTS Assay for Foot and Mouth Disease Virus Antivirals: Primary Screen against the MLPCN compound library; further: nearly all actives have a fitted effect of over 55% in size", "conditions": "FMDV antiviral cell-based qHTS; activity, negative = inhibition: at 57.9 µM (top of the series)"}
{"smiles": "Cc1cc(C(C)(C)C)cc(C)c1Cn1c2[n+](c3ccc(C(F)(F)F)cc31)CCCCC2", "Potency": "inconclusive: 28.2 µM [inhibitor, partial curve, poor fit]"}
{"smiles": "CC1CCN(C(=O)c2ccc(S(=O)(=O)Cc3ccccc3F)c([N+](=O)[O-])c2)CC1", "Potency": "inconclusive: 20 µM [inhibitor, partial curve, poor fit]"}
{"smiles": "C/C(=N\\NC(=O)c1ccc2c(c1)OCCO2)c1ccccc1", "Potency": "inconclusive: 20 µM [inhibitor, single point]"}
{"smiles": "Cc1c(NC(=O)CN2CCN(c3cccc(Cl)c3)CC2)c(=O)n(-c2ccccc2)n1C", "activity, negative = inhibition": "inactive: -31.9%"}
{"smiles": "CN(Cc1cnn(Cc2ccccc2)c1)C(=O)c1cccc(S(=O)(=O)N2CCOCC2)c1", "Potency": "inconclusive: 12.6 µM [inhibitor, partial curve]"}
{"smiles": "COc1ccc(CNC(=O)C(c2cccs2)N(Cc2ccco2)C(=O)Cc2cccs2)cc1", "note": "(configuration not stated)", "Potency": "inconclusive: 22.4 µM [inhibitor, partial curve, poor fit]"}
{"smiles": "Nc1nc(Nc2ccccc2)nc2ccccc12", "Potency": "inconclusive: 39.8 µM [inhibitor, single point]"}
{"smiles": "O=c1c2nncn2c2cccnc2n1CCNc1ncc(C(F)(F)F)cc1Cl", "Potency": "inconclusive: 31.6 µM [inhibitor, partial curve, poor fit]"}
{"smiles": "Cc1ccc(Nc2nnc(SCC(=O)Nc3cccc(S(=O)(=O)NC4=NCCCCC4)c3)s2)c(C)c1", "Potency": "inconclusive: 31.6 µM [inhibitor, single point]"}
{"smiles": "COc1ccc(Nc2nc(N)nc(CSC(=S)N3CCN(c4ccccc4)CC3)n2)cc1", "Potency": "inconclusive: 28.2 µM [inhibitor, partial curve, poor fit]"}
{"smiles": "O=C(Nc1ccc(N2CCN(C(=O)c3ccccc3)CC2)c(Cl)c1)c1ccco1", "Potency": "inconclusive: 20 µM [inhibitor, single point]"}
{"smiles": "Cc1cccc(C(=O)n2c(=S)nc3ccccn32)c1", "Potency": "inconclusive: 17.8 µM [inhibitor, single point]"}
{"smiles": "CSc1ccc(CCNC(=O)c2cc3c(-c4ccccc4F)nn(C)c3s2)cc1", "Potency": "inconclusive: 20 µM [inhibitor, partial curve, poor fit]"}
{"smiles": "CC(=O)c1cccc(-c2csc3ncnc(Sc4nnnn4C)c23)c1", "Potency": "inconclusive: 35.5 µM [inhibitor, partial curve, poor fit]"}
{"smiles": "CN(C)CC1CCC/C(=C/c2ccc(Cl)cc2)C1=O", "note": "(configuration not stated)", "Potency": "inconclusive: 39.8 µM [inhibitor, partial curve, poor fit]"}
{"smiles": "O=C(CSc1nnc2ccccn12)c1ccc2c(c1)OCCO2", "Potency": "inconclusive: 31.6 µM [inhibitor, single point]"}
{"smiles": "Cc1cccc(-n2ncc3c(N4CCCCCC4)ncnc32)c1", "Potency": "inconclusive: 15.8 µM [inhibitor, partial curve, poor fit]"}
{"smiles": "Cc1csc2ncnc(N3CCN(C(=O)Nc4ccc(OC(F)(F)F)cc4)CC3)c12", "Potency": "inconclusive: 17.8 µM [inhibitor, partial curve, poor fit]"}
{"smiles": "CCC(OC(=O)c1ccc(S(C)(=O)=O)c([N+](=O)[O-])c1)C(=O)NC1C2CC3CC(C2)CC1C3", "note": "(configuration not stated)", "Potency": "inconclusive: 39.8 µM [inhibitor, partial curve, poor fit]"}
{"smiles": "O=C(O)c1ccccc1C(=O)Nc1ccc(Oc2cccc(C(F)(F)F)c2)nc1", "Potency": "inconclusive: 3.16 µM [inhibitor, full curve, poor fit]"}
{"smiles": "COc1ccccc1-c1nnc(SCC(=O)Nc2nc(-c3ccccc3)cs2)n1C", "Potency": "inconclusive: 31.6 µM [inhibitor, partial curve, poor fit]"}
{"smiles": "O=C(CSc1ncnc2c1nnn2Cc1ccccc1F)N1CCN(c2ccccc2)CC1", "Potency": "inconclusive: 35.5 µM [inhibitor, single point]"}
{"smiles": "COc1cc(/C=N/N2C(=O)CSC2=S)cc(Br)c1O", "Potency": "inconclusive: 8.91 µM [inhibitor, partial curve]"}
{"smiles": "N#CC1(P(=O)(c2ccccc2)c2ccccc2)CCCC1", "Potency": "inconclusive: 3.55 µM [inhibitor, partial curve, poor fit]"}
{"smiles": "O=C(NNc1c([N+](=O)[O-])cc(C(F)(F)F)cc1[N+](=O)[O-])c1ccco1", "Potency": "inconclusive: 31.6 µM [inhibitor, partial curve, poor fit]"}
{"smiles": "O=C(CCCCCN1C(=O)c2ccccc2C1=O)Nc1cccc(O)c1", "activity, negative = inhibition": "inactive: -35.8%"}
{"smiles": "CC(C)(C)OC(=O)N1CCC(C(=O)Nc2cccc(C(=O)NCCCCc3ccccc3)c2)CC1", "Potency": "inconclusive: 17.8 µM [inhibitor, partial curve, poor fit]"}
{"smiles": "COc1cc(/C=C2\\SC(=O)N(c3cccc(Cl)c3)C2=O)cc([N+](=O)[O-])c1O", "activity, negative = inhibition": "inactive: -35%"}
{"smiles": "CCc1ccc2oc(-c3ccc(NC(=O)c4cccc(Cl)c4Cl)cc3)nc2c1", "Potency": "inconclusive: 12.6 µM [inhibitor, partial curve, poor fit]"}
{"smiles": "O=C(Nc1ccc(Br)cn1)c1cccc(-c2cc3ccccc3oc2=O)c1", "Potency": "inconclusive: 39.8 µM [inhibitor, single point]"}
{"smiles": "COc1ccc(N2CCN(S(=O)(=O)c3ccc4c(c3)NC(=O)C(C)S4)CC2)cc1", "note": "(configuration not stated)", "Potency": "inconclusive: 8.91 µM [inhibitor, partial curve]"}
{"smiles": "O=C(O)CC(NC(=O)C1c2ccccc2Oc2ccccc21)c1ccc(Cl)cc1", "note": "(configuration not stated)", "Potency": "inconclusive: 7.08 µM [inhibitor, partial curve, poor fit]"}
{"smiles": "COc1cc(C(=O)Nc2cc(-c3ccccc3)[nH]n2)cc(OC)c1OC", "Potency": "inconclusive: 10 µM [inhibitor, partial curve, poor fit]"}
{"smiles": "COc1ccc(NC(=O)CN2CCN(CC(=O)Nc3ccccc3Cl)CC2)cc1Cl", "Potency": "inconclusive: 39.8 µM [inhibitor, partial curve, poor fit]"}
{"smiles": "O=S(=O)(NCCCN1CCOCC1)c1ccc(F)c(Cl)c1", "Potency": "inconclusive: 14.1 µM [inhibitor, partial curve]"}
{"smiles": "COc1ccc(-n2nnnc2-c2nc3ccccc3s2)cc1", "Potency": "inconclusive: 14.1 µM [inhibitor, single point]"}
{"smiles": "CCc1cc(-c2ccc3c(c2)COc2c4ccccc4nn2-3)on1", "Potency": "inconclusive: 15.8 µM [inhibitor, single point]"}
{"smiles": "CCOCCCNC(=S)N1CCN(c2nc(-c3ccccc3)cs2)CC1", "activity, negative = inhibition": "inactive: -30.3%"}
{"smiles": "C/C(=N\\NC(=O)c1ccc(CN2CCc3ccccc3C2)cc1)c1ccccc1O", "Potency": "inconclusive: 22.4 µM [inhibitor, partial curve, poor fit]"}
{"smiles": "CC(C)c1ccc(/C=C/C(=O)Nc2nncs2)cc1", "Potency": "inconclusive: 11.2 µM [inhibitor, single point]"}
{"smiles": "Nc1nc(CN2CCN(c3ccccc3F)CC2)nc(Nc2ccc3c(c2)OCCO3)n1", "Potency": "inconclusive: 22.4 µM [inhibitor, partial curve, poor fit]"}
{"smiles": "CCOc1ccc2c(c1)c(=O)c(S(=O)(=O)c1ccc(CC)cc1)cn2Cc1cccc(Cl)c1", "Potency": "inconclusive: 3.55 µM [inhibitor, full curve]"}
{"smiles": "COc1ccc(CNC(=O)c2ccc(CS(=O)(=O)c3ccc(Br)cc3)o2)cc1", "Potency": "inconclusive: 14.1 µM [inhibitor, single point]"}
{"smiles": "COc1ccc(CN2CC(=O)N3[C@H]4c5ccc(OC)cc5OC[C@@H]4[C@H](c4ccccc4)[C@]3(C)C2=O)cc1", "Potency": "inconclusive: 10 µM [inhibitor, partial curve]"}
{"smiles": "COc1ccccc1N1CCN(S(=O)(=O)CCNC(=O)C(c2ccccc2)c2ccccc2)CC1", "Potency": "inconclusive: 14.1 µM [inhibitor, partial curve]"}
{"smiles": "COC(=O)c1scc(C#N)c1N/N=C(\\C#N)S(=O)(=O)c1ccc(Cl)cc1", "Potency": "inconclusive: 14.1 µM [inhibitor, partial curve, poor fit]"}
{"smiles": "Cc1nc(-c2ccc(C(=O)Nc3cccc(Br)c3)cc2)cs1", "Potency": "inconclusive: 17.8 µM [inhibitor, single point]"}
{"smiles": "Cc1ccc2c(c1)c(C)c(C)n2CC(O)Cn1nnc2ccccc21", "note": "(configuration not stated)", "Potency": "inconclusive: 39.8 µM [inhibitor, single point]"}
{"smiles": "OC(CN(c1ccccc1)c1ccccc1)Cn1cnc2ccccc21", "note": "(configuration not stated)", "Potency": "inconclusive: 31.6 µM [inhibitor, partial curve, poor fit]"}
{"smiles": "COc1cc(C2CC(=O)N(Cc3ccc(F)cc3)c3ccccc3S2)cc(OC)c1OC", "note": "(configuration not stated)", "Potency": "inconclusive: 14.1 µM [inhibitor, partial curve, poor fit]"}
{"smiles": "Cc1ccc(-c2nc3cc(NC(=O)C(C)C)ccc3o2)cc1", "Potency": "inconclusive: 14.1 µM [inhibitor, single point]"}
{"smiles": "CC(C)c1nc(SCC(=O)N2CC(=O)Nc3ccccc32)c2ccccc2n1", "Potency": "inconclusive: 15.8 µM [inhibitor, partial curve, poor fit]"}
{"smiles": "CC(C)c1ccc(NC(=O)c2ccc3c(c2)CCCN3S(C)(=O)=O)cc1", "Potency": "inconclusive: 10 µM [inhibitor, partial curve, poor fit]"}
{"smiles": "Cc1ccc(S(=O)(=O)N2C[C@H]3n4c(=O)ccc(=O)n4C[C@H](OC(=O)NCC4CCCCC4)[C@@]3(O)C2)cc1", "Potency": "inconclusive: 31.6 µM [inhibitor, partial curve, poor fit]"}
{"smiles": "CCOc1ccc(-c2cnc3ccccc3n2)cc1", "Potency": "inconclusive: 11.2 µM [inhibitor, partial curve, poor fit]"}
{"smiles": "COc1ccc(C)cc1NC(=O)CN(C)S(=O)(=O)c1ccc2c(c1)CCCN2C(C)=O", "Potency": "inconclusive: 17.8 µM [inhibitor, partial curve]"}
{"smiles": "Cc1ccccc1-c1ccnc2c(-c3ccc(F)cc3)c(C)nn12", "Potency": "active: 28.2 µM"}
